Test results published in paper PMC8835667.
These are yes or no findings as the source states them, for the method shown. In cells and extracts the contact can be indirect.

Protein sequences, listed by entry. Tags and fused reporters are not part of them. Residues count along the entry.
UniProt Q13263: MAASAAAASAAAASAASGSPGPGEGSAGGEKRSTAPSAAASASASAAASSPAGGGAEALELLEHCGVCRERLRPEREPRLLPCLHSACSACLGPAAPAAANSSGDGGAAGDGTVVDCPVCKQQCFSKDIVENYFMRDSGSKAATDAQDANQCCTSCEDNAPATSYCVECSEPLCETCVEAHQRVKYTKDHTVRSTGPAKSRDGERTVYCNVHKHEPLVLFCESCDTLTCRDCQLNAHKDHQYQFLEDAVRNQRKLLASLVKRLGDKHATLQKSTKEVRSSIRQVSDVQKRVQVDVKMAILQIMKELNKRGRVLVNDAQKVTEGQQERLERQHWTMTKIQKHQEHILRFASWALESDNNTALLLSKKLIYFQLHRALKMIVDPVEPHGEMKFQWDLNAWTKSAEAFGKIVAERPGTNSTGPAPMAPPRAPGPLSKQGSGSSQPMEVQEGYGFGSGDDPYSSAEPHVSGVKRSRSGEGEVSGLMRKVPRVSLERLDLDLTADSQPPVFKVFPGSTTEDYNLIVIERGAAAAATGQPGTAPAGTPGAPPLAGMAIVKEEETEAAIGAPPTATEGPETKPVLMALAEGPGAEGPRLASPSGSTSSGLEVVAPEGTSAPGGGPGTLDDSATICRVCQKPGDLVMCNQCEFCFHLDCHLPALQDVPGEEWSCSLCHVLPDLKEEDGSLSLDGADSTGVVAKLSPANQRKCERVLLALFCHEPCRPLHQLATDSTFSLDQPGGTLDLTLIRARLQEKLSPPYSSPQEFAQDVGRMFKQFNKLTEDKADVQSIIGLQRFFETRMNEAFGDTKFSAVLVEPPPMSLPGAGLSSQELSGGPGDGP
UniProt Q9NQV7, residues 24-97: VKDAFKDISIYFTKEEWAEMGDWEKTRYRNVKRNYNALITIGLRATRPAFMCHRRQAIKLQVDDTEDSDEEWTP

Target: tripartite motif containing 28 (TRIM28) (human (endogenous in HeLa)) (UniProt Q13263)
Test: co-IP; HeLa cells transfected with GST-KRAB fusion plasmids; extracts in buffer TST (20 mM TRIS/HCl pH 7.5, 60 mM KCl, 15 mM NaCl, 10 mM MgCl2, 1 mM CaCl2, 250 mM sucrose, 0.5% Triton X-100); endogenous TRIM28 precipitated with mouse monoclonal anti-TRIM28 (1Tb1A9) and magnetic protein G beads; Western blot with anti-GST

With “GST-PRDM9-A/24-97 (from UniProt Q9NQV7 24-97) (domain or fragment)” the binding was “no binding”.
